Experimental data taken from publication PMC5025654.
These are yes or no findings as the source states them, for the method shown. Binding calls can cover weak binding; strength is not graded here.

What was measured:
[1] = target: TGF-β1 of the porcine enamel matrix (porcine (endogenous in porcine enamel)); assay: ELISA; sandwich ELISA (Quantikine kit, R&D Systems) with TGF-β1 capture and TGF-β1 detection antibodies on RP-HPLC-purified amelogenins; amount of TGF-β1 calculated from standard TGF-β1; complexes formed in vivo
[2] = target: TGF-β1 of the porcine enamel matrix (porcine (endogenous in porcine enamel)); assay: ELISA; modified sandwich ELISA: RP-HPLC-purified amelogenin samples on a plate coated with the TGF-β1 capture antibody, detected with biotinylated amelogenin antibody and HRP-conjugated streptavidin; complexes formed in vivo

binding [1]: binds
binding [2]: binds
B1: P173 amelogenin (protein, UniProt P45561 17-189)
chain: MPLPPHPGHPGYINFSYEVLTPLKWYQNMIRHPYTSYGYEPMGGWLHHQIIPVVSQQTPQSHALQPHHHIPMVPAQQPGIPQQPMMPLPGQHSMTPTQHHQPNLPLPAQQPFQPQPVQPQPHQPLQPQSPMHPIQPLLPQPPLPPMFSMQSLLPDLPLEAWPATDKTKREEVD
